According to patent publication US20090269281A1, “Calcium/Calmodulin-Dependent Protein Kinase Kinase as a Control Point for Cardiac Hypertrophy” (University of North Texas Health Science Center at Fort …, priority 2007, published 2009):
Results are given in words; binding and its absence hold for the method and conditions named. For some of these results: Binding seen in cells or lysates may run through a third protein. Some binding calls cover weakened binding; strength is not graded here.

Chains of the proteins cited; added tags and fusions are not shown. Lines headed by an entry give the natural chain unless they say otherwise; changes in a name come on top. A line that says so, or that is headed by a name, gives the form on record, which may keep a tag or linker.
histone deacetylase 5 (HDAC5) (A0A8I6G4R8, form named): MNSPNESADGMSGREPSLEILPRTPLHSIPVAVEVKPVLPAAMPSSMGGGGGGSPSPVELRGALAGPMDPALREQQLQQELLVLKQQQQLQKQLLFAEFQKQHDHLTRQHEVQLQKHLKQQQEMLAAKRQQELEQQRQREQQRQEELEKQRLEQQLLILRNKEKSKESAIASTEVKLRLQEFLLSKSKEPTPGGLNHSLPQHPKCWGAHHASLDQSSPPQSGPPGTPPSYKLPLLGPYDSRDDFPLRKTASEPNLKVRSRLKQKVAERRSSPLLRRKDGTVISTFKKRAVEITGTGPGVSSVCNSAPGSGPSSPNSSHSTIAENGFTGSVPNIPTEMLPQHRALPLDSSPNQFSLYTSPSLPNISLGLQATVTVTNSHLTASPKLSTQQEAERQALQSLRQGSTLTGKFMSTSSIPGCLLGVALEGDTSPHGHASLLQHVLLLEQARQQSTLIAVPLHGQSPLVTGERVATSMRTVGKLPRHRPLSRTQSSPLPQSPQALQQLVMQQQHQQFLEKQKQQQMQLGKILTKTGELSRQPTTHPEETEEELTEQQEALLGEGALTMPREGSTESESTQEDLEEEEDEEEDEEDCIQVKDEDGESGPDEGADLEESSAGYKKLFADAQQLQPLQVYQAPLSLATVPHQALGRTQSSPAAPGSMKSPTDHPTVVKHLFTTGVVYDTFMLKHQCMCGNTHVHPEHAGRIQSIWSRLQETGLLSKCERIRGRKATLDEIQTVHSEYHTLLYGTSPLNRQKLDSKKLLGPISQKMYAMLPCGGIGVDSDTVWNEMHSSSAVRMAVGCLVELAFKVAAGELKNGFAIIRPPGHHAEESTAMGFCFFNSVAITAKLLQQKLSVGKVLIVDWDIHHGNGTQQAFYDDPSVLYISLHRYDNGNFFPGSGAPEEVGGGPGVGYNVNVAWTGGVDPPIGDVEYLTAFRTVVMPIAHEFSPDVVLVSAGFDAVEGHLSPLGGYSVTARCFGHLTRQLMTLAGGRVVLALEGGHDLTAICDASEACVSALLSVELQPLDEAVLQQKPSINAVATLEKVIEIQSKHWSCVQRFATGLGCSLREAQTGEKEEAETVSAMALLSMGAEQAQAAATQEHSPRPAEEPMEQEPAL

How the values were obtained:
14-3-3β (rat) [1] = target: T1, 14-3-3β (rat) (UniProt P35213); assay: immunoprecipitation of 14-3-3β after STO-609, SB203580 or U0126 pretreatment and UII, HDAC5 western blot
T1 sequence (looked up): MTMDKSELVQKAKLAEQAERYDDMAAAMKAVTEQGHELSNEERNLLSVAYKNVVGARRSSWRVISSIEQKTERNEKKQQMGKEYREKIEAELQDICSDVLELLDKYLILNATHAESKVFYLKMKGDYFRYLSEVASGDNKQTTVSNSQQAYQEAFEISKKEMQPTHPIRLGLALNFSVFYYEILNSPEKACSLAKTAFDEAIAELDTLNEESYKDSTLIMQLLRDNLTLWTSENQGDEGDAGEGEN

14-3-3β (rat) [2] = target: T1, 14-3-3β (rat); assay: co-immunoprecipitation from cardiomyocyte lysates, western blot
14-3-3β (rat) [3] = target: T1, 14-3-3β (rat); assay: immunoprecipitation of 14-3-3β from whole cell lysates, western blot for coimmunoprecipitated HDAC5
14-3-3β (rat) [4] = target: T1, 14-3-3β (rat); assay: pull-down of 14-3-3β with specific antibody and protein G agarose from AdUIIR-infected cardiomyocyte lysates, HDAC5 western blot

Measured: binding

histone deacetylase 5 (HDAC5) (from UniProt A0A8I6G4R8 1-1114) (enzyme)
binds: 14-3-3β (rat) [1] | 14-3-3β (rat) [2] | 14-3-3β (rat) [3] | 14-3-3β (rat) [4]
